Experimental data from PubChem BioAssay AID504467 (National Center for Advancing Translational Sciences (NCATS), 2011).
Hit rate of the full screen: of about 330,000 compounds, about 7,700 (2.3%) were called active. The shares of active, inactive and inconclusive entries below differ from those in the screen. The call rests on the fitted dose curve; in most records, active means well fitted inhibition curve with a large enough effect; inconclusive means small, poorly fitted or top-dose-only effect, or effect the other way; inactive means flat fitted curve, though single readings scatter. Where the call is inconclusive, the potency comes from a doubtful curve fit.

Experiment: qHTS screen for small molecules that inhibit ELG1-dependent DNA repair in human embryonic kidney (HEK293T) cells expressing luciferase-tagged ELG1; further: nearly all actives have a fitted effect of over 55% in size
Conditions: HEK293T ELG1-luciferase reporter, luminescence, 16 h, DNA damage induced by 5-fluorouridine; activity change, negative = inhibition: at 46.1 µM (top of the series)
In short: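 5-Fluorouridine DNA damage + compound/DMSO, 2,000 cells/well, 16 h, 37 °C/5% CO2. ONE-Glo, 30 min RT, luminescence. Readout = decrease in reporter signal.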
On the % scale 0 is the no-effect control and ±100 the full control effect; potency means the concentration at half of the fitted maximal effect.

Compound | activity change, negative = inhibition | Potency
O=C(NCCc1ccc(F)cc1)c1ccc(NS(=O)(=O)c2ccc3[nH]c(=O)[nH]c3c2)cc1 | inactive: 2.76% | –
COc1ccc(NC(=O)c2c(NC(=O)CCC(=O)O)sc3c2CCCCC3)cc1 | inactive: 4.15% | –
CN(C)S(=O)(=O)c1ccc(S(=O)(=O)NCc2cccs2)cc1 | inactive: -3.04% | –
CS(=O)(=O)N1CCN(c2ccc(NC(=O)c3cc4ccccc4o3)cc2)CC1 | – | inconclusive: 8.2 µM [activator, partial curve]
O=C(NC1CC1)c1ccc2c(c1)N(Cc1ccc(Cl)cc1)CCS2 | inactive: -11.6% | –
COc1ccccc1C(=O)COC(=O)C1CCN(S(=O)(=O)c2ccc(C)c(C)c2)CC1 | – | inconclusive: 32.6 µM [inhibitor, partial curve, poor fit]
COc1ccc(-c2noc(CCC(=O)NCCCN3CCN(c4ccc(F)cc4)CC3)n2)cc1 | inactive: 0% | –
Cc1ccccc1-n1c(SCC(=O)c2c(N)n(C)c(=O)n(C)c2=O)nc2sc3c(c2c1=O)CCCC3 | – | active: 1.64 µM
CCc1ccc(NC(=O)CC2NCCNC2=O)cc1 (stereo not given) | – | inconclusive: 32.6 µM [activator, partial curve, poor fit]
O=C(Nc1ccc(NS(=O)(=O)c2ccccc2)cc1)c1cccnc1 | – | inconclusive: 29.1 µM [inhibitor, partial curve, poor fit]
CCOC(=O)C1=C(C)NC2=C(C(=O)CC(C)(C)C2)C1c1coc2ccccc2c1=O (stereo not given) | inactive: 19.2% | –
CCOc1ccc(NC(=O)c2ccccc2SC)cc1 | – | inconclusive: 2.59 µM [activator, full curve, poor fit]
Cc1ccc(S(=O)(=O)NNC(=O)c2cnn(-c3ccccc3)c2C(F)(F)F)cc1 | – | inconclusive: 18.3 µM [inhibitor, single point]
CCCC(=O)Nc1nc(-c2ccc3c(c2)OCCO3)cs1 | – | inconclusive: 2.06 µM [activator, partial curve]
CCN(Cc1ccccc1)C(=O)CN1C(=O)COc2ccc(S(=O)(=O)N3CCCCCC3)cc21 | inactive: 0.407% | –
COc1ccc(OC)c(NS(=O)(=O)c2ccc(N3CCCC3=O)cc2)c1 | – | inconclusive: 0.146 µM [inhibitor, partial curve, poor fit]
COc1cccc(OC)c1C(=O)Nc1ccc2c(c1)n(C)c(=O)n2C | – | inconclusive: 29.1 µM [activator, single point]
COc1ccc(/C(N)=N/OC(=O)c2cccc([N+](=O)[O-])c2C)cc1 | – | inconclusive: 13 µM [activator, partial curve]
O=C(Nc1cc(Cl)ccc1O)c1cc2n(n1)C(C(F)(F)F)CC(c1ccc3c(c1)OCO3)N2 (stereo not given) | – | inconclusive: 29.1 µM [inhibitor, single point]
Cc1cc(F)ccc1NC(=O)c1cc(S(=O)(=O)N2CCCC2)cn1C | inactive: -1.65% | –
CN(Cc1ccccc1)C(=O)CSc1cc(=O)n(C)c2ccccc12 | – | inconclusive: 23.1 µM [activator, partial curve]
CCOc1ccc(Oc2ccc(C(F)(F)F)cc2N)cc1 | – | inconclusive: 20.6 µM [activator, single point]
CCC(C)c1ccc(NC(=O)COC(=O)CCNS(=O)(=O)c2cccs2)cc1 (stereo not given) | – | inconclusive: 23.1 µM [activator, single point]

Compound | activity change, negative = inhibition | Potency
O=C(CNS(=O)(=O)c1cccc(Cl)c1)OCc1csc(-c2ccccc2)n1 | – | inconclusive: 20.6 µM [activator, single point]
CCCOc1cc(C)c(S(=O)(=O)NCc2cccs2)cc1C | – | inconclusive: 29.1 µM [inhibitor, single point]
COc1ccc(NC(=O)Nc2ccc(C(C)C)cc2)cc1 | – | inconclusive: 20.6 µM [activator, single point]
O=C(CSc1nnc(-c2ccncc2)n1Cc1ccco1)N1c2ccccc2Sc2ccc(Cl)cc21 | – | active: 23.1 µM
Cc1cc(NC(=O)c2ccc(Cl)cc2)cc(C)c1OCC(=O)N1CCOCC1 | – | inconclusive: 3.26 µM [activator, partial curve, poor fit]
Cc1ccc(NC(=O)CN(C)C(=O)C(C)N2CCN(Cc3ccccc3C)CC2)cc1 (stereo not given) | inactive: -1.17% | –
Cc1cc(C)c2cc(CN(Cc3ccco3)C(=O)NCc3ccccc3)c(=O)[nH]c2c1 | – | active: 8.2 µM
CC1CN(C(=S)c2cccc([N+](=O)[O-])c2)CC(C)O1 (stereo not given) | inactive: -8.2% | –
COc1ccc(-n2c(Cc3cccn3C)nnc2SCC(=O)Nc2ccc(Cl)cc2)cc1 | – | inconclusive: 29.1 µM [inhibitor, single point]
COc1ccc(C(=O)Nc2ccc3ccccc3c2)cc1 | – | inconclusive: 0.259 µM [activator, full curve]
COc1ccc(C[C@@H]2CN3C(=NC[C@@H]3Cc3ccc(O)cc3)N2C[C@H](C)NC(=O)CCC2CCCCC2)cc1 | inactive: -25.1% | –
Cc1ccc(N2C(=O)c3ccc(N)cc3C2=O)cc1C | – | inconclusive: 18.4 µM [activator, partial curve]
COCc1ccc(CN2CCc3c([nH]c4ccccc34)C2C(C)(C)C)o1 (stereo not given) | – | inconclusive: 23.1 µM [activator, partial curve]
C/C(CC(C)C)=N/Nc1ccc([N+](=O)[O-])cc1[N+](=O)[O-] | inactive: -7.95% | –
COc1ccc(C(=O)c2cc([N+](=O)[O-])ccc2N2CCOCC2)cc1 | – | inconclusive: 0.146 µM [inhibitor, single point]
CC(=O)NC1=NN(C(C)=O)C(C)(c2cccs2)S1 (stereo not given) | inactive: -9.73% | –
O=C(O)c1cc(-c2ccccc2)nc2nc(N3CCCCC3)sc12 | inactive: 18.5% | –
CCCc1nc2ccccc2c(C(=O)N(CC)CC(=O)NCc2cccs2)c1CC | inactive: -6.93% | –
Nc1c(-c2ccc(Cl)cc2)cnc2c(-c3ccc(F)cc3)cnn12 | – | inconclusive: 5.17 µM [activator, partial curve]
O=C(NCc1cn2ccsc2n1)c1cccs1 | – | inconclusive: 18.4 µM [activator, partial curve, poor fit]
Cn1ccnc1-c1nc2ccccc2[nH]c1=O | inactive: 14.5% | –
C=CCn1c(SCc2nc3ccccc3c(=O)[nH]2)nc2ccccc2c1=O | – | inconclusive: 29.1 µM [inhibitor, single point]

Whole records from above:
`COc1ccc(-n2c(Cc3cccn3C)nnc2SCC(=O)Nc2ccc(Cl)cc2)cc1` in the list: Potency: inconclusive: 29.1 µM [inhibitor, single point]
`CCCc1nc2ccccc2c(C(=O)N(CC)CC(=O)NCc2cccs2)c1CC` in the list: activity change, negative = inhibition: inactive: -6.93%
